This assay concerns the target Bt-LC3A-propargylamide (12) (UniProt Q9H492). Briefly: pull-down; 3 μM biotin probe 11 or 12 added to HEK293T lysate (0.8% NP40, 150 mM NaCl, 50 mM Tris-HCl pH 8.0, 0.05 mM MgCl2), 1 h at 37 °C, NeutrAvidin agarose overnight at 4 °C, harsh washing 5 times with lysis buffer containing 2% SDS, Western blot with anti-GFP; only the target purified.

Chains of the proteins cited; added tags and fusions are not shown. Lines headed by an entry give the natural chain unless they say otherwise; changes in a name come on top.
UniProt Q9Y4P1: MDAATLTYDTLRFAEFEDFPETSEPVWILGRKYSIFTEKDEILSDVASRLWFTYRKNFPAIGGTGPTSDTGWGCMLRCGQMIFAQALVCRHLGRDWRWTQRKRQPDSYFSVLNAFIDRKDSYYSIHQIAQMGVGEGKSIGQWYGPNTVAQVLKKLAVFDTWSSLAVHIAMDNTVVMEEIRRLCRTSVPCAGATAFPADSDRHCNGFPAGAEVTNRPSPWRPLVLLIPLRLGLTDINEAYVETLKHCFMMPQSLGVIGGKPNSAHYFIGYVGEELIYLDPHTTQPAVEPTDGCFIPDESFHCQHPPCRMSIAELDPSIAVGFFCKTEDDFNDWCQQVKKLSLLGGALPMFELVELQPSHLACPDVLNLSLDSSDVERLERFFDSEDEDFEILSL

These are yes or no findings as the source states them, for the method shown. Binding seen in cells or lysates may run through a third protein. Some entries that bind do so weakly or less than the wild type.

Regarding “GFP-tagged Atg4B (from UniProt Q9Y4P1 1-393) (enzyme)”, the binding result is “binds”.
To “GFP-tagged Atg4B C74A (from UniProt Q9Y4P1 1-393) (enzyme)” belongs “binds”.

Source of the values: paper PMC10045837.
